Test results taken from PMC5779225.
No constants are given. Whether binding was seen depends on the method and setting. In cells and extracts the contact can be indirect. Tags and fused reporters may be left off the sequences shown.

Amino acid sequences for entries named in this document (tags omitted). Residues count along the entry.
UniProt P06213, residues 763-1382: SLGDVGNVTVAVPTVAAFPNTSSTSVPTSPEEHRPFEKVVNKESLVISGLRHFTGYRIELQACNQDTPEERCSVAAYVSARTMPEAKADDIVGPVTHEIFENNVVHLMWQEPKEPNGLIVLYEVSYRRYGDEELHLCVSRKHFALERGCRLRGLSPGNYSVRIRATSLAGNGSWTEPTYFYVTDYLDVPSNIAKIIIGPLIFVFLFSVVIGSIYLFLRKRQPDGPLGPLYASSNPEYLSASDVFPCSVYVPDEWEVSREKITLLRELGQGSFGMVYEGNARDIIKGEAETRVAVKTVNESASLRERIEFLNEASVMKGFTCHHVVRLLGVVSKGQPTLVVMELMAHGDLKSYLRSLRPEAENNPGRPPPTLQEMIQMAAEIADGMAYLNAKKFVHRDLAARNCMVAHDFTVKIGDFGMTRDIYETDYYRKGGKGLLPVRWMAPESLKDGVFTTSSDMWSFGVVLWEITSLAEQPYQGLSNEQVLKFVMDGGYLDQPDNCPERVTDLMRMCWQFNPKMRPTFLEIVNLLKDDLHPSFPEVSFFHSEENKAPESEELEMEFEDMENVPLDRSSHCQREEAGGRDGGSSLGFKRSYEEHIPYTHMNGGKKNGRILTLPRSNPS

Molecular target: T1, Shisa2-MycHis (mouse) (UniProt Q8QZV2)
T1 sequence: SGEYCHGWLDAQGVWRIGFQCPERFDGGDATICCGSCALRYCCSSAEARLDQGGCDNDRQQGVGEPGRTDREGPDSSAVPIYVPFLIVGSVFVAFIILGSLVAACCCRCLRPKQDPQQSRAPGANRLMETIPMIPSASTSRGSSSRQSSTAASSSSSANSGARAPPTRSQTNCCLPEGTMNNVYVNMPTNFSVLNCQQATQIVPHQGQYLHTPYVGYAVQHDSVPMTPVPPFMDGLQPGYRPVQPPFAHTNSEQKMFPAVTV
Test: co-IP; HEK293T cells lysed 48 hr after transfection in IP buffer (20 mM Tris HCl pH 7.5, 150 mM NaCl, 1 mM EGTA, 0.1% TX-100); immunoprecipitated with anti-HA or anti-Myc antibodies and protein A/G agarose; immunoblot

- binding: no binding
Substance: Insulin receptor β (IRβ) (from UniProt P06213 763-1382)
